Measurements published in article PMC7985146.
Results are given in words; binding and its absence hold for the method and conditions named. Binding seen in cells or lysates may run through a third protein. Some results given as binding are weak or reduced against the parent protein; the word gives no strength. Tags and fused reporters may be left off the sequences shown.

Sequences of proteins named here, by UniProt entry; tags and fusion partners are left off.
UniProt P63279: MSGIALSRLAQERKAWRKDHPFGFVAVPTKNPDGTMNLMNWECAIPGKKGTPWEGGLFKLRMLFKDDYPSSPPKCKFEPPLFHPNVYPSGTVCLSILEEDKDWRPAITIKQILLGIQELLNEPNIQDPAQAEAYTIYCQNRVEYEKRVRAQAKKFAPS
UniProt P21796: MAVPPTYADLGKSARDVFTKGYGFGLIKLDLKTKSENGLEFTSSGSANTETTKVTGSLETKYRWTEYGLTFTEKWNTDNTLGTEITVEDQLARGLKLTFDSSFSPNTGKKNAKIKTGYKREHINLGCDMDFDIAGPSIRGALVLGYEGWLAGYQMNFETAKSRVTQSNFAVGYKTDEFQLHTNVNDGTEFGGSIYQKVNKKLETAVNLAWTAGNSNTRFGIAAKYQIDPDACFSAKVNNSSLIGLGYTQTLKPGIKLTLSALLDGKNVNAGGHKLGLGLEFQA

Experiments:
[1] = target: T1, HA-tagged rat hexokinase 2 K315R (rat) (UniProt P27881); assay: co-IP; 293T cells transfected with HA-tag HK2 WT or mutants; cell lysates precipitated with HA antibody and blotted by VDAC1 antibody (endogenous VDAC1)
T1 sequence: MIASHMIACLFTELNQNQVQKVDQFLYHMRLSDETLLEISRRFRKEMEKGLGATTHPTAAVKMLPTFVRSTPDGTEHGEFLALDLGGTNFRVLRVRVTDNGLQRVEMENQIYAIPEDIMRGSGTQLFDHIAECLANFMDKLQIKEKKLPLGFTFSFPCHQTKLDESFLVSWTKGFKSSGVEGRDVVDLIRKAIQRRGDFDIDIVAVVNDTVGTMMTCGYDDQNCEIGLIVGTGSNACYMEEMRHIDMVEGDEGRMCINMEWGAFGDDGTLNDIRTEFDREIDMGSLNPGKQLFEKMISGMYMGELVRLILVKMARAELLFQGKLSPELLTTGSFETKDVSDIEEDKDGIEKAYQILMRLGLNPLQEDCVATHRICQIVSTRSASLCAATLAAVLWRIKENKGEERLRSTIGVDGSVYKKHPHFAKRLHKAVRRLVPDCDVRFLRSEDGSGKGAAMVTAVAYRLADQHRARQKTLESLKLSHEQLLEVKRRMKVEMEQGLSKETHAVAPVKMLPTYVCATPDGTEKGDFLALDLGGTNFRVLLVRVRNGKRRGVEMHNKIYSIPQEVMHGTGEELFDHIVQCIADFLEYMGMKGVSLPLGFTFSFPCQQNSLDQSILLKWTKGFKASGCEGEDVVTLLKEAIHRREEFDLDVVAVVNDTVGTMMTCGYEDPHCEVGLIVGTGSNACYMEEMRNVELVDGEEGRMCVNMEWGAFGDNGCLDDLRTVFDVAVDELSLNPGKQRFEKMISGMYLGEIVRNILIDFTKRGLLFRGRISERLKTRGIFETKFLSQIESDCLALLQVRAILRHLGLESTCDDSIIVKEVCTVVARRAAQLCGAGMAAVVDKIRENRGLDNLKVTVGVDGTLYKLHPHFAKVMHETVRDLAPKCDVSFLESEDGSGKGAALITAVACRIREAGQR

[2] = target: T2, HA-tagged rat hexokinase 2 K315R/K492R double mutant (rat) (UniProt P27881); assay: as above
T2 sequence: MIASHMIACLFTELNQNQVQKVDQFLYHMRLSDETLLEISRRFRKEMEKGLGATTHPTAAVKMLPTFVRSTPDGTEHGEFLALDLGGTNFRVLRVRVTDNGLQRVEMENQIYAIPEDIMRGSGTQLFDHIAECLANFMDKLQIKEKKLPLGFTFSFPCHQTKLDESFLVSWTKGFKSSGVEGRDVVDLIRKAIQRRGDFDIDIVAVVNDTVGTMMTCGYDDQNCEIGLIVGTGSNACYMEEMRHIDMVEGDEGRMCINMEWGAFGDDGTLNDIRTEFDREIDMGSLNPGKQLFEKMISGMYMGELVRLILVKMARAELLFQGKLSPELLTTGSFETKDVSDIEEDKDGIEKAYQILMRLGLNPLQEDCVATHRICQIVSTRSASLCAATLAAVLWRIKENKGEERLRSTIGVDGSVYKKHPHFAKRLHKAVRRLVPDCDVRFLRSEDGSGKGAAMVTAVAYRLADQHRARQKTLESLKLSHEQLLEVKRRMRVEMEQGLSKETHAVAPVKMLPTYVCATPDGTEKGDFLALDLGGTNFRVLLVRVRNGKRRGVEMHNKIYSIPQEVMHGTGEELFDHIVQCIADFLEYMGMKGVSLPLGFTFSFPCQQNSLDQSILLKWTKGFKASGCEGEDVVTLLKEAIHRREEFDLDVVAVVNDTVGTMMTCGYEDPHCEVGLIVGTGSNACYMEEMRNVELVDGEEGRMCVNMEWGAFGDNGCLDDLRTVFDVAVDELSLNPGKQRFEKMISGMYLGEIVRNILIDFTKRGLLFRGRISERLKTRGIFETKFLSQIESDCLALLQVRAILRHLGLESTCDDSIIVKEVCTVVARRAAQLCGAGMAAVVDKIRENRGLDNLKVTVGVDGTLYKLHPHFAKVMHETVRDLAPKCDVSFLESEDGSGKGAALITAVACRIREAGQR

[3] = target: T3, HA-tagged rat hexokinase 2 K492R (rat) (UniProt P27881); assay: as above
T3 sequence: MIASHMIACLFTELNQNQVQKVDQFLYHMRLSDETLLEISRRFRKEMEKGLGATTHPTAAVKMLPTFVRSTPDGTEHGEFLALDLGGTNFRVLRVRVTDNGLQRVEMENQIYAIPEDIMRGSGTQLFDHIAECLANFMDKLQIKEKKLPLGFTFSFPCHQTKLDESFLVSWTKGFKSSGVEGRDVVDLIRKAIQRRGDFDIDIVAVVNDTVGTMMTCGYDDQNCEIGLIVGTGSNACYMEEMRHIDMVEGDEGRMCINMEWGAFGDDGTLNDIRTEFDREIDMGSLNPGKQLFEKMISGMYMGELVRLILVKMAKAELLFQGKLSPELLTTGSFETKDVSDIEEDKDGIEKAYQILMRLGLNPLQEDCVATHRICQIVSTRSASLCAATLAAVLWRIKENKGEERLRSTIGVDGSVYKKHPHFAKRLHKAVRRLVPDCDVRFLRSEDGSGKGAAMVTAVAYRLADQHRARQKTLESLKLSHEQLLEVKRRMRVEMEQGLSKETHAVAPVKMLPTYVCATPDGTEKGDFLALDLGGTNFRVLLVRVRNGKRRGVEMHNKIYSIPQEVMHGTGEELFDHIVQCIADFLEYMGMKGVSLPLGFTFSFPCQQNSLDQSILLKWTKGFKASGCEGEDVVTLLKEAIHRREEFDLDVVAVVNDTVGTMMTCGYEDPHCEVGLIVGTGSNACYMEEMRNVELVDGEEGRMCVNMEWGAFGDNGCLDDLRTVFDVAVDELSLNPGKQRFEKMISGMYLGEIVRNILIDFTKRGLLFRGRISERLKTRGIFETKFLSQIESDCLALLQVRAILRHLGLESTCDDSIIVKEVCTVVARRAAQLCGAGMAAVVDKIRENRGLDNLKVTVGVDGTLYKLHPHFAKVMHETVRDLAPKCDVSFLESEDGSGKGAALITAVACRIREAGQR

[4] = target: T4, HA-tagged rat hexokinase 2, wild-type (rat) (UniProt P27881); assay: as above
T4 sequence: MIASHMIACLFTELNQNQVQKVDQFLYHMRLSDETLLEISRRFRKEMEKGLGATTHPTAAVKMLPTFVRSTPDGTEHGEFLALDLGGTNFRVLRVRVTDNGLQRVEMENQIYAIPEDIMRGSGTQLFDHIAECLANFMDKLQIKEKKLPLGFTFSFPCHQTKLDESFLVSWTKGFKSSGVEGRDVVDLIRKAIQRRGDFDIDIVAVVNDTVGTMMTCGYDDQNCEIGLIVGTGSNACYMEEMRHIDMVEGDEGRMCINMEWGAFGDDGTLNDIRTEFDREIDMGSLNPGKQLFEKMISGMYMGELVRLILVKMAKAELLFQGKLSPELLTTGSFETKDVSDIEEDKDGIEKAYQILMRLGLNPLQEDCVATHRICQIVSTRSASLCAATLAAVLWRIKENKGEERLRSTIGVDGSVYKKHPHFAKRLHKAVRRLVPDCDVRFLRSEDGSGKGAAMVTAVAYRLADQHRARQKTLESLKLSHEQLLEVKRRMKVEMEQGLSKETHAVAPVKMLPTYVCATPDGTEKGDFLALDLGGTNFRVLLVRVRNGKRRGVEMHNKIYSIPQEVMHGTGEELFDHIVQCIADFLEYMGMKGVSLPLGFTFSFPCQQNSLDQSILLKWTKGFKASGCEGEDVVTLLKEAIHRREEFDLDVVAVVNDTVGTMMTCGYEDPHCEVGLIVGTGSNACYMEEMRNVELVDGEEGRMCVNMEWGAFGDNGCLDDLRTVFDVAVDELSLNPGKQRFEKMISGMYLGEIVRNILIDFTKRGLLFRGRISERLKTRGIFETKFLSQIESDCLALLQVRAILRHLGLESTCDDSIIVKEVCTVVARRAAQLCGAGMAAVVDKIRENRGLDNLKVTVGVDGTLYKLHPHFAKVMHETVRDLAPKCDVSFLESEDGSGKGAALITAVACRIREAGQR

Flag-tagged SENP1 = target: T5, Flag-tagged SENP1 (UniProt Q9P0U3); assay: co-IP; HEK293T cells transfected with both tagged plasmids (HK2-HA with Flag-Ubc9 or Flag-SENP1); immunoprecipitation and western blotting; which tag was precipitated is not told
T5 sequence: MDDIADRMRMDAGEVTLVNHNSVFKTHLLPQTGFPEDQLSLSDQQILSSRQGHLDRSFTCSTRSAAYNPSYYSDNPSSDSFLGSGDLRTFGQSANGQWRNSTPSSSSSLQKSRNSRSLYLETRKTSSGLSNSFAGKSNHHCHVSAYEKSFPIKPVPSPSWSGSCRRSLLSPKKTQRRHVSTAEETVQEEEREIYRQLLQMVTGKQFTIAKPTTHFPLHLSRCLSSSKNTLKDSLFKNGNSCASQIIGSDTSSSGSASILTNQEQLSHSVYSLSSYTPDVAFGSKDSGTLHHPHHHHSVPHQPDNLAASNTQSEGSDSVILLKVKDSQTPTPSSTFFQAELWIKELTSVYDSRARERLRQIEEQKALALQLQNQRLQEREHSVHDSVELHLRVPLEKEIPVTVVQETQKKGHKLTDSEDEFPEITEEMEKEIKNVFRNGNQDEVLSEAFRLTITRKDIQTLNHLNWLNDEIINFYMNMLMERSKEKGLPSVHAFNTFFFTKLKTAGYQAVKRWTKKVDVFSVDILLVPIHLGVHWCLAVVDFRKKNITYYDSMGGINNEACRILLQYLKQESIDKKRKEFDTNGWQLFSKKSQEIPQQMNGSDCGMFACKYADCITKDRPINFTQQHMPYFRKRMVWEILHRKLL

Flag-tagged UBC9 = Flag-tagged UBC9 (UniProt P63279); assay: as above

Measured: binding

VDAC1 (from UniProt P21796 1-283)
binds: [1] | [2] | [3] | [4]

B1: HA-tagged rat hexokinase 2, wild-type (enzyme, UniProt P27881 1-917)
chain: MIASHMIACLFTELNQNQVQKVDQFLYHMRLSDETLLEISRRFRKEMEKGLGATTHPTAAVKMLPTFVRSTPDGTEHGEFLALDLGGTNFRVLRVRVTDNGLQRVEMENQIYAIPEDIMRGSGTQLFDHIAECLANFMDKLQIKEKKLPLGFTFSFPCHQTKLDESFLVSWTKGFKSSGVEGRDVVDLIRKAIQRRGDFDIDIVAVVNDTVGTMMTCGYDDQNCEIGLIVGTGSNACYMEEMRHIDMVEGDEGRMCINMEWGAFGDDGTLNDIRTEFDREIDMGSLNPGKQLFEKMISGMYMGELVRLILVKMAKAELLFQGKLSPELLTTGSFETKDVSDIEEDKDGIEKAYQILMRLGLNPLQEDCVATHRICQIVSTRSASLCAATLAAVLWRIKENKGEERLRSTIGVDGSVYKKHPHFAKRLHKAVRRLVPDCDVRFLRSEDGSGKGAAMVTAVAYRLADQHRARQKTLESLKLSHEQLLEVKRRMKVEMEQGLSKETHAVAPVKMLPTYVCATPDGTEKGDFLALDLGGTNFRVLLVRVRNGKRRGVEMHNKIYSIPQEVMHGTGEELFDHIVQCIADFLEYMGMKGVSLPLGFTFSFPCQQNSLDQSILLKWTKGFKASGCEGEDVVTLLKEAIHRREEFDLDVVAVVNDTVGTMMTCGYEDPHCEVGLIVGTGSNACYMEEMRNVELVDGEEGRMCVNMEWGAFGDNGCLDDLRTVFDVAVDELSLNPGKQRFEKMISGMYLGEIVRNILIDFTKRGLLFRGRISERLKTRGIFETKFLSQIESDCLALLQVRAILRHLGLESTCDDSIIVKEVCTVVARRAAQLCGAGMAAVVDKIRENRGLDNLKVTVGVDGTLYKLHPHFAKVMHETVRDLAPKCDVSFLESEDGSGKGAALITAVACRIREAGQR
binds: Flag-tagged SENP1 | Flag-tagged UBC9
